# According to the supplement of paper PMC12067093, “Discovery and optimisation of a covalent ligand for TRIM25 and its application to targeted protein ubiquitination” (Chemical Science, 2025):
# Protein sequences, listed by entry. Tags and fused reporters are not part of them. Lines headed by an entry give the natural chain unless they say otherwise; changes in a name come on top.
# UniProt Q8TB52: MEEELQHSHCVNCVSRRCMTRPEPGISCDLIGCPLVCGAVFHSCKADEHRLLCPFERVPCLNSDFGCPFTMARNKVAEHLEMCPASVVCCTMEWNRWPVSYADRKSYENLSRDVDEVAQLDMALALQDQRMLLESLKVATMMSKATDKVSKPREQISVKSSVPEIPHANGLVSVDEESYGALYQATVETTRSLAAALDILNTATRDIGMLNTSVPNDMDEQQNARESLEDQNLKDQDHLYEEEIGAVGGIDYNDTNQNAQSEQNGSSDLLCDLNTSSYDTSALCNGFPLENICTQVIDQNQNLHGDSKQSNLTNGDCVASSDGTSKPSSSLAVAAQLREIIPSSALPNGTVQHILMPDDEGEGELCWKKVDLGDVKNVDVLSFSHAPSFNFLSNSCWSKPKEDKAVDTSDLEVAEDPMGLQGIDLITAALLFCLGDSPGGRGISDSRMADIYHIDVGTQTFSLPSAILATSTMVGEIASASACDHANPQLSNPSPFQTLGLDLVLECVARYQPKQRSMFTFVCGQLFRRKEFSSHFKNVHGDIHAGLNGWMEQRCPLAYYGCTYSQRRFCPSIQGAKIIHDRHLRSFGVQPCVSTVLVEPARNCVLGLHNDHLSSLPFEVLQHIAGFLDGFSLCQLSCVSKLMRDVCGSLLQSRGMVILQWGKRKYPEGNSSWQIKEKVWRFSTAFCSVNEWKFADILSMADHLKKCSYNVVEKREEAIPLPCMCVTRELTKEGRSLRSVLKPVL
# UniProt Q9UK73, whole entry, looked up: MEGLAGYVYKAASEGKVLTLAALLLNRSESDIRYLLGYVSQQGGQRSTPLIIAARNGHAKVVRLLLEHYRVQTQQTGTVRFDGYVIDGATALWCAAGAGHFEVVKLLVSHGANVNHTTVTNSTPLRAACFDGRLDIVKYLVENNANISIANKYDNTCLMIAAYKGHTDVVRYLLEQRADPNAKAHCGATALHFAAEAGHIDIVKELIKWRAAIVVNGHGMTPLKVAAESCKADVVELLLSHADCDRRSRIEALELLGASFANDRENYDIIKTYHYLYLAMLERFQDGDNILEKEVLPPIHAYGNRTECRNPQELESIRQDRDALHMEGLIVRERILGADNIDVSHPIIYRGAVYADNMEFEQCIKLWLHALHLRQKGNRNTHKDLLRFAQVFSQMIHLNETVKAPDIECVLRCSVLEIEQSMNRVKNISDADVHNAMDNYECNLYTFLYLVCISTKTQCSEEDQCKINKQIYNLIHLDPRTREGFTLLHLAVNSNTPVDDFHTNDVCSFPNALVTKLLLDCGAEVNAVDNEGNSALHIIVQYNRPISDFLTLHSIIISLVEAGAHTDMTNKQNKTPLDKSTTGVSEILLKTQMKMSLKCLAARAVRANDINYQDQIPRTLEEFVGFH
# UniProt Q96IG2: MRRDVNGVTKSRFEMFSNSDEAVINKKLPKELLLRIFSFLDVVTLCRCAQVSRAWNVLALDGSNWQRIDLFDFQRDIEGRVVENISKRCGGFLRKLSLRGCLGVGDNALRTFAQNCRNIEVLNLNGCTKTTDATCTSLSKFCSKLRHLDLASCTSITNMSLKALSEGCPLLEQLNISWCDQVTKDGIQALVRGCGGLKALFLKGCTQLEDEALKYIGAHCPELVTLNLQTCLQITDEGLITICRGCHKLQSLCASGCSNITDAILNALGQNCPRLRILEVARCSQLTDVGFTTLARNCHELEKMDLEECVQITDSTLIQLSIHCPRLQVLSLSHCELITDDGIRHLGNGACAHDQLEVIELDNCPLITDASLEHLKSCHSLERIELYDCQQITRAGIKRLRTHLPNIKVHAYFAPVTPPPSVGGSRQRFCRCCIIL
# UniProt Q96ME1: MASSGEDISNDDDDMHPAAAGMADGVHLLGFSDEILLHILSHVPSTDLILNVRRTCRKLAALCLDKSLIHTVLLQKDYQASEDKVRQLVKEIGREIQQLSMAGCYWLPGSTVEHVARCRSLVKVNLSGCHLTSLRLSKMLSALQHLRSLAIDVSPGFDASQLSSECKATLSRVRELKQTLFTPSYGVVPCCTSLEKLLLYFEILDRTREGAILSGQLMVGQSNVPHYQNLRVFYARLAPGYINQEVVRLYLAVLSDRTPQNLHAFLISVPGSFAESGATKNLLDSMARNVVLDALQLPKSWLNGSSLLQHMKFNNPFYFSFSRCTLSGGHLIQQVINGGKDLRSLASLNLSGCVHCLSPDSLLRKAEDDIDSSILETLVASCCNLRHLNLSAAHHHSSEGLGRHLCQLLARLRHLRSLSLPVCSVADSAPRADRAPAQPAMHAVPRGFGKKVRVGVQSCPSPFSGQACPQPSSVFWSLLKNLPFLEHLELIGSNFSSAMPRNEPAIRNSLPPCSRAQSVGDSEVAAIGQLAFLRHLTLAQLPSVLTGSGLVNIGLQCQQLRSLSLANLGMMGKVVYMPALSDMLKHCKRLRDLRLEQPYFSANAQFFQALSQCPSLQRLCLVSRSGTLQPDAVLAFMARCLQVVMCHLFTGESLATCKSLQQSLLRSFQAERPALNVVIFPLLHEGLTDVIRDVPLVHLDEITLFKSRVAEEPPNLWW
# UniProt Q5JSP0: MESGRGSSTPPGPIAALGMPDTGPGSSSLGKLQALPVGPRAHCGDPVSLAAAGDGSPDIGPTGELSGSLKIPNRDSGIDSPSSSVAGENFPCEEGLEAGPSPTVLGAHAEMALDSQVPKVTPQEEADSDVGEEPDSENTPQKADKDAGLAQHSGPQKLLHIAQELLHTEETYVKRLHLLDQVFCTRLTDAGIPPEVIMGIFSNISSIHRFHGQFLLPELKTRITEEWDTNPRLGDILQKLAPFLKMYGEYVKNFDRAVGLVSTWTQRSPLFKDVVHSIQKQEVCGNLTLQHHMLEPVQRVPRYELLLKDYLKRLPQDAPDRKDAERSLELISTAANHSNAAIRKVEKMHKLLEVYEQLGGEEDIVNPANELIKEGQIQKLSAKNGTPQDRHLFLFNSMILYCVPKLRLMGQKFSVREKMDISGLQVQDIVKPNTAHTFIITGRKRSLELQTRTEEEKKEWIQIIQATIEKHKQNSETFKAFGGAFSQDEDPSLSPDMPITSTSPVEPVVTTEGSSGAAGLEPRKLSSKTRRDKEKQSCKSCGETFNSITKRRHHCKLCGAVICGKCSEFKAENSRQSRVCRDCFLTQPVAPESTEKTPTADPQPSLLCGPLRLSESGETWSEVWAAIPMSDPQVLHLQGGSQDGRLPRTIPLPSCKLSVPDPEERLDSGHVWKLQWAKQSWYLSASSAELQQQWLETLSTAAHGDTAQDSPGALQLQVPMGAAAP
# UniProt Q9NSD9: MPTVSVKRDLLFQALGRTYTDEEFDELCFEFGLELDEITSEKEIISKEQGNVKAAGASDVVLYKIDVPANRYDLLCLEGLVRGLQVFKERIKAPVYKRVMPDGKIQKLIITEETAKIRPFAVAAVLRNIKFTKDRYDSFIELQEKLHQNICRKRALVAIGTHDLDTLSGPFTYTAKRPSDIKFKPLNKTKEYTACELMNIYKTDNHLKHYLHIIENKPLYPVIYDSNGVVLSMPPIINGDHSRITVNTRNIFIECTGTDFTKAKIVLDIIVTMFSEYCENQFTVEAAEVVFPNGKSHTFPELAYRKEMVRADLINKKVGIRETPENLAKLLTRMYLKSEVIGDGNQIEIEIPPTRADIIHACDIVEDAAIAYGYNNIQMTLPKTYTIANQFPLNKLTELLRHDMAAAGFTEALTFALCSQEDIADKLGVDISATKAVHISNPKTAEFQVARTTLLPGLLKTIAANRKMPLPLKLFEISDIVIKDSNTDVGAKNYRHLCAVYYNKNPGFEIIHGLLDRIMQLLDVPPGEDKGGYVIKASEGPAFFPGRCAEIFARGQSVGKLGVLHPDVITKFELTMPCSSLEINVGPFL
# UniProt P0C2W1: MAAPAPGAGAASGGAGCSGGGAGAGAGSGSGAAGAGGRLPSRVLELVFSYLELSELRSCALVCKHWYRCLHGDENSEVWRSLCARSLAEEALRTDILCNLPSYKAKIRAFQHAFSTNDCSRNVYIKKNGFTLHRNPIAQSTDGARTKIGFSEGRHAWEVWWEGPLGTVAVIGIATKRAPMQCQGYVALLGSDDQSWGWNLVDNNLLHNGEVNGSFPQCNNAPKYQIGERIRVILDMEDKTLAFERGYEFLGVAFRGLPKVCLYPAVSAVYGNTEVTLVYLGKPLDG
# UniProt Q8WVX9: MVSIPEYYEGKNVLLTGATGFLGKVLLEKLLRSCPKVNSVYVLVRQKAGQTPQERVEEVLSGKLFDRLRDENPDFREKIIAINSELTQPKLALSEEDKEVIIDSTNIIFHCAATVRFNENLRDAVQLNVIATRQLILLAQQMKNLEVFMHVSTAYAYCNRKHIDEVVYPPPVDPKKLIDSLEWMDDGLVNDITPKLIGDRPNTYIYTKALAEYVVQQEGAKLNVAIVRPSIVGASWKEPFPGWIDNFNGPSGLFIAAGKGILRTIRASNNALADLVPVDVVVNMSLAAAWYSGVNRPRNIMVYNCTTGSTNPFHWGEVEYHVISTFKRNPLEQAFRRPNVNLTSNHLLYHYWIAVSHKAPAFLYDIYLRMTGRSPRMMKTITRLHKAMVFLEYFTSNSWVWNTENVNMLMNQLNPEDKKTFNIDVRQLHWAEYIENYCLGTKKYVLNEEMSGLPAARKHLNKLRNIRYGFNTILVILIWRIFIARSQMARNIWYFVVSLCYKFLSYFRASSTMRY
# UniProt Q52LJ0: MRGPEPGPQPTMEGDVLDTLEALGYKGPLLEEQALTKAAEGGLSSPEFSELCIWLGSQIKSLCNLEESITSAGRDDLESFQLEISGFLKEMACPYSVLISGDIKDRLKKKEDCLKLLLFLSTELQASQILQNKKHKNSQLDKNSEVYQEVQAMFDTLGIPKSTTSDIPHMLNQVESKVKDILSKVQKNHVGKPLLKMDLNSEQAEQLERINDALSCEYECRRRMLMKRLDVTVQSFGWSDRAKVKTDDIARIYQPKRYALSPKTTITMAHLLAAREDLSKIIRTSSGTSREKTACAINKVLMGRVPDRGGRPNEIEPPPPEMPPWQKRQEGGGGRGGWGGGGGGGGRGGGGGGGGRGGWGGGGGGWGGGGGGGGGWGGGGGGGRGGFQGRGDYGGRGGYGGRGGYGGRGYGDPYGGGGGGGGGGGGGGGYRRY
# UniProt Q86UX7, whole entry, looked up: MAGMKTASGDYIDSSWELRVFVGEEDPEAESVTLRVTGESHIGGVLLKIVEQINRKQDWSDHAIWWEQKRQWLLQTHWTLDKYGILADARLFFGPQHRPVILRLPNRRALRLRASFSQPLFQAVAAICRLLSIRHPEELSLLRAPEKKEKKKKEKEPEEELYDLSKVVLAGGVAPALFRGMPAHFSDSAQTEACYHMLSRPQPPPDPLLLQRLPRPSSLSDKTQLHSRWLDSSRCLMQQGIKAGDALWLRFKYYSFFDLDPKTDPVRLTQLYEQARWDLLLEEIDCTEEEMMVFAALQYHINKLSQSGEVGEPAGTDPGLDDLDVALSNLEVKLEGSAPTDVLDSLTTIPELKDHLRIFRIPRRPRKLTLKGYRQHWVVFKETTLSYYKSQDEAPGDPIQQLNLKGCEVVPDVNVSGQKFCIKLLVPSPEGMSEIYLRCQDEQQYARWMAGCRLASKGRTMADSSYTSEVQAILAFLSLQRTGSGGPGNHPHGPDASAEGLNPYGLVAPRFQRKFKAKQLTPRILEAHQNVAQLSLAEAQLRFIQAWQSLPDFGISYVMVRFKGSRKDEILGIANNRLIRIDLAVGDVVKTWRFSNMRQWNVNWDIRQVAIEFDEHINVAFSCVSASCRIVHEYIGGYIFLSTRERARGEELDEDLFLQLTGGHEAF
# UniProt Q9Y324: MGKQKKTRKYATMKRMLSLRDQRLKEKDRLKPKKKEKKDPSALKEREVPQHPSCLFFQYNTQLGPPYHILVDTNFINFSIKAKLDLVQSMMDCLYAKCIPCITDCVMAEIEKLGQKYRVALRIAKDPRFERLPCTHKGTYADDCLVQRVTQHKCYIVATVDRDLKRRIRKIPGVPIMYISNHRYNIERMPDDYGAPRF
# UniProt P22830: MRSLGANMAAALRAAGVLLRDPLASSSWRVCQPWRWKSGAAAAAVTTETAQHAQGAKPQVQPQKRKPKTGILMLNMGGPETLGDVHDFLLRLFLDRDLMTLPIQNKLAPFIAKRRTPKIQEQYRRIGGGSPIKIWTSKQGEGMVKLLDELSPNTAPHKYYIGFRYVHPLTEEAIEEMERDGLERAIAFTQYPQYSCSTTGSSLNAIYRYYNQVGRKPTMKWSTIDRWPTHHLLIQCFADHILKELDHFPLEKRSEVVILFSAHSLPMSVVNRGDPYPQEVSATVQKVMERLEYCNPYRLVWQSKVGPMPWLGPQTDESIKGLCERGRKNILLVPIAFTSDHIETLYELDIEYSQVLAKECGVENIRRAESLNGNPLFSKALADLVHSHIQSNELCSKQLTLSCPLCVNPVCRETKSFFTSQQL
# UniProt Q6P4F2: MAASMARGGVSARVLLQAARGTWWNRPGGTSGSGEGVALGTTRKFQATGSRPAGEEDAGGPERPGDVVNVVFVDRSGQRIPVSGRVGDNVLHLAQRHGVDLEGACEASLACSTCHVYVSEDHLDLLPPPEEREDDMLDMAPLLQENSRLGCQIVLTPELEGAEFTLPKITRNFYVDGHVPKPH
# Some of the results follow.
# Compound: Cc1cc(ccc1-c1ccccc1)C(=O)N1CCCN(CC1)C(=O)CCl [compound 10]
# Assay: probe-labelled cysteine peptide fold change vs DMSO (competition) (log2 fold change); higher = less target engagement (more negative = stronger competition)
# Settings: THP-1, incubation time: 4 h
# 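Further: competitive profiling in live THP-1 cells: cysteine peptides tagged with an iodoacetamide desthiobiotin (IA-DTB) probe, intensity after compound treatment relative to DMSO-treated cells.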
Target,probe-labelled cysteine peptide fold change (10 µM),probe-labelled cysteine peptide fold change (50 µM)
FASN_P49327_1448+1459_AINCATSGVVGLVNCLR (UniProt P49327),0.14,-0.205
FBXO30_Q8TB52_592_SFGVQPCVSTVLVEPAR (UniProt Q8TB52),-0.00516,-0.247
FASTKD1_Q53R41_46_CTDEEQMFGFIER (UniProt Q53R41),-0.21,-0.551
FAM49B_Q9NUQ9_223_NLPIENTTDCLSTMASVCR (UniProt Q9NUQ9),0.067,0.112
FGD2_Q7Z6J4_548_GSSATPDQSLMCSFLQLIGDK (UniProt Q7Z6J4),0.091,0.29
FDXR_P22570_105_CAFWGNVEVGR (UniProt P22570),-0.128,0.0536
FAM91A1_Q658Y4_750_IAAHGLCR (UniProt Q658Y4),0.00721,0.0943
FBXO30_Q8TB52_90_VAEHLEMCPASVVCCTMEWNR (UniProt Q8TB52),-0.103,-0.0583
FBLN1_P23142_494_RGYQLSDVDGVTCEDIDECALPTGGHICSYR (UniProt P23142),-0.208,-0.45
FANCL_Q9NW38_251_HPTMLPECFFLGADHVVK (UniProt Q9NW38),-0.0134,0.128
FGR_P09769_415_LIKDDEYNPCQGSK (UniProt P09769),-0.148,-0.205
FBN2_P35556_2453_DIDECK (UniProt P35556),0.00718,0.0174
FAM208A_Q9UK61_1421_NAPELDCLIR (UniProt Q9UK61),-0.155,0.159
FEM1B_Q9UK73_244_ADVVELLLSHADCDR (UniProt Q9UK73),-0.305,-0.389
FAM76B_Q5HYJ3_60_CAQNVK (UniProt Q5HYJ3),0.078,-0.271
FCHSD2_O94868_354_VLNDLECHGAAVSEQSR (UniProt O94868),0.0298,-0.117
FBN2_P35556_941_CELDTACPR (UniProt P35556),0.316,0.197
FAM208B_Q5VWN6_847_CSADSLLETNEISR (UniProt Q5VWN6),-0.188,-0.119
FBXL20_Q96IG2_135_TTDATCTSLSK (UniProt Q96IG2),-0.123,-0.077
FHL1_Q13642-1_255_CSVNLANKR (UniProt Q13642),-0.0452,-0.318
FAM208A_Q9UK61_601_SHIDTCLHAYIFRPEVYQLPICK (UniProt Q9UK61),-0.151,-0.568
FAM47A_Q5JRC9_650_ECSSELK (UniProt Q5JRC9),0.18,0.0244

Target,probe-labelled cysteine peptide fold change (10 µM),probe-labelled cysteine peptide fold change (50 µM)
FBXL6_Q8N531_439_WCHTLR (UniProt Q8N531),-0.202,-0.706
FASN_P49327_2024_EACPELDYFVVFSSVSCGR (UniProt P49327),0.19,0.126
FBXL18_Q96ME1_406_HLCQLLAR (UniProt Q96ME1),-0.0799,-0.264
FGD3_Q5JSP0_655_TIPLPSCK (UniProt Q5JSP0),0.0387,-0.0485
FBXW11_Q9UKB1_484_APASTLCLR (UniProt Q9UKB1),-0.00112,0.297
FBXL12_Q9NXK8_134_TLELHSCEISMAWLHK (UniProt Q9NXK8),0.0753,-0.0713
FANCD2_Q9BXW9_729_LVSPLCLAPYFR (UniProt Q9BXW9),-0.135,-0.421
FAM208B_Q5VWN6_1441_SNQISQCESEDLGITEK (UniProt Q5VWN6),-0.0905,0.119
FAM193B_Q96PV7_766_VGSCAEAGEGSR (UniProt Q96PV7),0.0282,-0.135
FANCB_Q8NB91_543_LSTNPFPAPYLMPCEIGLEAK (UniProt Q8NB91),-0.145,-0.211
FASTKD1_Q53R41_673_SVCLECPEFQIPWFHDR (UniProt Q53R41),-0.00433,-0.256
FAR2_Q96K12_111_EDMQELLSCTNIIFHCAATVR (UniProt Q96K12),0.00258,0.312
FBXO30_Q8TB52_570_FCPSIQGAK (UniProt Q8TB52),0.133,-0.0964
FCGRT_P55899_182_ELTFLLFSCPHR (UniProt P55899),-0.15,0.0669
FASN_P49327_1759_CLATHGR (UniProt P49327),0.116,-0.0264
FBXL20_Q96IG2_378_SCHSLER (UniProt Q96IG2),0.0657,-0.069
FARSB_Q9NSD9_548_CAEIFAR (UniProt Q9NSD9),-0.0718,0.00363
FASN_P49327_634_CPPGVVPACHNSK (UniProt P49327),0.258,0.0678
FBXO45_P0C2W1_119_AFQHAFSTNDCSR (UniProt P0C2W1),0.105,0.171
FASN_P49327_2010+2024_EACPELDYFVVFSSVSCGR (UniProt P49327),0.456,0.616
FBXO3_Q9UK99_403_FHMACPTFR (UniProt Q9UK99),-0.0404,-0.224
FAR1_Q8WVX9_111_EVIIDSTNIIFHCAATVR (UniProt Q8WVX9),0.346,0.38

Target,probe-labelled cysteine peptide fold change (10 µM),probe-labelled cysteine peptide fold change (50 µM)
FASTKD1_Q53R41_716_MLAEVLGGINCVK (UniProt Q53R41),0.0359,-0.174
FAM98B_Q52LJ0_93_EMACPYSVLISGDIK (UniProt Q52LJ0),0.308,0.182
FERMT3_Q86UX7_407_GCEVVPDVNVSGQK (UniProt Q86UX7),0.0295,-0.04
FAM98B_Q52LJ0_216+220_INDALSCEYECR (UniProt Q52LJ0),-0.164,-0.505
FASTKD2_Q9NYY8_163_KLSEECNSLSDVLDAFSK (UniProt Q9NYY8),-0.306,-0.383
FGB_P02675_437_CHAANPNGR (UniProt P02675),-0.463,-0.386
FARSA_Q9Y285_493_VNLQMVYDSPLCR (UniProt Q9Y285),-0.162,0.161
FAM206A_Q9NX38_46_ICVITLAESHPVLQSGK (UniProt Q9NX38),0.187,0.294
FASN_P49327_1992_DGLLENQTPEFFQDVCKPK (UniProt P49327),-0.0563,-0.0216
FCF1_Q9Y324_154_CYIVATVDRDLK (UniProt Q9Y324),0.0906,-0.345
FBP1_P09467_93_SSFATCVLVSEEDK (UniProt P09467),0.31,0.163
FAM208A_Q9UK61_318_HVCPYAVVSFTYK (UniProt Q9UK61),-0.201,-0.698
FGD3_Q5JSP0_184_RLHLLDQVFCTR (UniProt Q5JSP0),-0.128,0.0343
FERMT3_Q86UX7_235_CLMQQGIK (UniProt Q86UX7),-0.0735,-0.0882
FCF1_Q9Y324_93_LDLVQSMMDCLYAK (UniProt Q9Y324),-0.0733,-0.0698
FAM98B_Q52LJ0_295_TACAINK (UniProt Q52LJ0),-0.0789,-0.0032
FGD4_Q96M96_234_LDLLDQVFYCK (UniProt Q96M96),0.118,0.154
FECH_P22830_403_QLTLSCPLCVNPVCR (UniProt P22830),0.0908,-0.0505
FARSB_Q9NSD9_195_EYTACELMNIYK (UniProt Q9NSD9),-0.0615,-0.222
FASN_P49327_1141_AALQEELQLCK (UniProt P49327),0.0995,0.302
FBL_P22087_268_ANCIDSTASAEAVFASEVK (UniProt P22087),0.0798,0.478
FBXO22_Q8NEZ5_7_MEPVGCCGECR (UniProt Q8NEZ5),-0.235,1.31

Target,probe-labelled cysteine peptide fold change (10 µM),probe-labelled cysteine peptide fold change (50 µM)
FASN_P49327_1403_SFYGSTLFLCR (UniProt P49327),0.124,0.0134
FBXO7_Q9Y3I1_286_LQLLPESFICK (UniProt Q9Y3I1),0.226,0.218
FCHSD2_O94868_304_DYNLQLFLQENAVFHKPQPFQFQPCDSDTSR (UniProt O94868),-0.0696,-0.0577
FBXO45_P0C2W1_98_TDILCNLPSYK (UniProt P0C2W1),0.0904,0.36
FAM193A_P78312_106_LGTTTHDTCSEDTYSTLLQR (UniProt P78312),0.0842,-0.157
FANCI_Q9NVI1_1025_EDALFCK (UniProt Q9NVI1),-0.0799,0.0448
FASN_P49327_1403_KSFYGSTLFLCR (UniProt P49327),0.0238,-0.263
FBXL18_Q96ME1_557_HLTLAQLPSVLTGSGLVNIGLQCQQLR (UniProt Q96ME1),-0.293,-0.335
FCF1_Q9Y324_93_AKLDLVQSMMDCLYAK (UniProt Q9Y324),0.339,-0.137
FASN_P49327_1558_HAQPTCPGAQLCTVYYASLNFRDIMLATGK (UniProt P49327),-0.297,-0.657
FDX2_Q6P4F2_154_LGCQIVLTPELEGAEFTLPK (UniProt Q6P4F2),0.0206,0.216
FARSB_Q9NSD9_76_YDLLCLEGLVR (UniProt Q9NSD9),0.165,0.21
FASN_P49327_1186_LLSAACR (UniProt P49327),0.0684,-0.0954
FAM83H_Q6ZRV2_789_SLESCLLDLR (UniProt Q6ZRV2),-0.117,0.762
FAR1_Q8WVX9_305_NIMVYNCTTGSTNPFHWGEVEYHVISTFK (UniProt Q8WVX9),0.349,0.677
FAM208A_Q9UK61_1138_HLLEPLCSDPLK (UniProt Q9UK61),-0.279,-0.0561
FEM1B_Q9UK73_244_ADVVELLLSHADCDRR (UniProt Q9UK73),-0.425,-0.334
FAM160B1_Q5W0V3_624_CNLEAAFFEGHFLK (UniProt Q5W0V3),-0.0187,0.238
FES_P07332_372_QVLQEALQGLQVALCSQAK (UniProt P07332),-0.028,0.164
FASN_P49327_2369_AKLTPGCEAEAETEAICFFVQQFTDMEHNR (UniProt P49327),-0.0307,-0.887
